From PubChem BioAssay AID308 (DTP/NCI, 2004) come the findings set out here.

The test concerns BDF1 mice, L1210 6-MP/6-TG resistant leukemia ip, survival T/C. The test can be described thus: NCI In Vivo Anticancer Drug Screen. Data for tumor model L1210 Leukemia resistant to 6-MP and 6-Thioguanine; NSC 755, NSC 752 (intraperitoneal) in B6D2F1 (BDF1) mice. Particulars: T/C endpoint: mean survival time, higher T/C = longer survival. How it is done:
The antitumor activity of compounds was measured in mice bearing transplantable tumors. Survival or tumor size were measured and the results are expressed as the measurement made in the treated group (T) divided by the measurement made in the vehicle treated control group (C). The tumor model used in this assay is L1210 Leukemia resistant to 6-MP and 6-Thioguanine; NSC 755, NSC 752 (intraperitoneal) in B6D2F1 (BDF1) mice

The mark [1] stands for this setting: dose: 50.0 mg/kg/injection, schedule: Q01DX Z (ip), vehicle: carboxymethylcellulose (CMC).
Where [2] appears, read: dose: 200.0 mg/kg/injection, schedule: Q01DX Z (ip), vehicle: carboxymethylcellulose (CMC).

The list shows only some results of the screen, not a fair sample: it is rich in T/C values a quarter to a half above the control, in often repeated tests (any T/C) and in doses without a T/C. Other doses and runs of a compound stand elsewhere. T/C: endpoint of the treated group in % of that of the vehicle group. Some doses have a count of surviving animals in place of a T/C: the source files T/C as zero there, which appears to mark a toxic dose or a test without result, not a measured value. Some doses without a T/C left all or most animals alive at the check, yet need not have been tolerated: the source hardly ever lists a survival T/C far under the control, and the zero likely stands for such cases as well. Counts of survivors are from the toxicity check (mostly the fifth day) where no day follows; animals may have died later. Schedules are NCI's codes, taken here to give the interval after Q, in days (D) or hours (H), and the number of doses after X. Some schedules carry Z or #; the key to these is not given. Where survival is the endpoint, the PubChem record calls one and a half times the control and up active, and a quarter to a half above the control has no call in these data; cut-offs in other NCI protocols can differ. Some T/C values are followed by the survivors on the day toxicity was checked, most often the fifth; without a count, all were alive then.

Take `COCCCNS(=O)(=O)c1ncnc2nc[nH]c12`: the survivor count reads like this: under setting [1], 6 of 6; under setting [2], 6 of 6.

`COc1cc2c(c3c1c(=O)c1ccccc1n3C)C=CC(C)(C)O2`: the T/C (dose: 60.0 mg/kg/injection, schedule: Q01DX015 (ip), vehicle: carboxymethylcellulose (CMC)) is 126 % of control and the T/C (dose: 80.0 mg/kg/injection, schedule: Q01DX015 (ip), vehicle: carboxymethylcellulose (CMC)) is 128 % of control.

For `C=CCSc1ncnc2c1ncn2C1OC(CO)C(O)C1O` (stereo unspecified), the survivor count (dose: 400.0 mg/kg/injection, schedule: Q01DX015 (ip), vehicle: saline) was 5 of 6.

As for `Nc1ccc(OC(=O)Oc2ccc(N)cc2)cc1`, where the note is “dose: 500.0 mg/kg/injection, schedule: Q01DX Z (ip), vehicle: saline”, the survivor count is given as 3 of 6.

Consider `N#[N+]c1cnc([O-])[nH]c1=O`, for which the T/C (dose: 1.87 mg/kg/injection, schedule: Q01DX Z (ip), vehicle: alkali diluted with saline) was 127 % of control and the T/C (dose: 3.75 mg/kg/injection, schedule: Q01DX Z (ip), vehicle: alkali diluted with saline) was 135 % of control. The survivor count runs as follows: (dose: 20.0 mg/kg/injection, schedule: Q01DX Z (ip), vehicle: alkali diluted with saline) 5 of 6; (dose: 40.0 mg/kg/injection, schedule: Q01DX Z (ip), vehicle: alkali diluted with saline) 0 of 6.

As for `Nc1ncnc2[nH]ncc12`, the survivor count (dose: 20.0 mg/kg/injection, schedule: Q01DX Z (ip), vehicle: carboxymethylcellulose (CMC)) is recorded as 6 of 6; the survivor count under setting [1] is reported as 5 of 6; the survivor count (dose: 100.0 mg/kg/injection, schedule: Q01DX Z (ip), vehicle: carboxymethylcellulose (CMC)) is given as 0 of 6; the survivor count under setting [2] is 0 of 6.

In the case of `CCSc1nc(Cl)cc(Sc2nc(N)nc3nc[nH]c23)n1`, the survivor count runs as follows: (dose: 31.0 mg/kg/injection, schedule: Q01DX Z (ip), vehicle: other) 6 of 7; (dose: 62.0 mg/kg/injection, schedule: Q01DX Z (ip), vehicle: other) 6 of 7; (dose: 125.0 mg/kg/injection, schedule: Q01DX Z (ip), vehicle: other) 6 of 6; (dose: 250.0 mg/kg/injection, schedule: Q01DX Z (ip), vehicle: other) 5 of 6; (dose: 500.0 mg/kg/injection, schedule: Q01DX Z (ip), vehicle: other) 6 of 6; (dose: 1000.0 mg/kg/injection, schedule: Q01DX Z (ip), vehicle: other) 3 of 6.

Take `C1CN1c1nc(N2CC2)nc(N2CC2)n1`: the T/C is, setting by setting: (dose: 0.5 mg/kg/injection, schedule: Q01DX Z (ip), vehicle: saline) 149 % of control [5 of 6 alive]; (dose: 0.75 mg/kg/injection, schedule: Q01DX Z (ip), vehicle: saline) 133 % of control.

`CN(Cc1cnc2nc(N)nc(N)c2n1)c1ccc(C(=O)N[C@@H](CCC(=O)O)C(=O)O)cc1`: the T/C (dose: 0.26 mg/kg/injection, schedule: Q02DX010 (ip), vehicle: carboxymethylcellulose (CMC)) was 132 % of control and the T/C (dose: 0.4 mg/kg/injection, schedule: Q02DX010 (ip), vehicle: carboxymethylcellulose (CMC)) was 132 % of control.

In the case of `CC(=O)O[C@]1(C(C)=O)CC[C@H]2[C@@H]3C[C@H](C)C4=CC(=O)C=C[C@]4(C)[C@@]3(F)[C@@H](O)C[C@@]21C`, the survivor count by setting is: (dose: 75.0 mg/kg/injection, schedule: Q01DX Z (sc), vehicle: steroid suspending solution) 6 of 6; (dose: 150.0 mg/kg/injection, schedule: Q01DX Z (sc), vehicle: steroid suspending solution) 6 of 6.
